# Reference: PubChem BioAssay AID1487 (National Center for Advancing Translational Sciences (NCATS), 2009)
# This is one part of the list. The main result of the screen is listed elsewhere. These columns were measured beside it and carry no call. Most of these compounds were active or inconclusive in the main read-out, so they are no random draw. The note in brackets gives the kind of curve behind each potency; many fits are weak.
# Assay: qHTS Assay for Modulators of Lamin A Splicing
# Conditions: HeLa LMNA splicing GFP/RFP minigene ratio, 48 h
# Procedure, shortened: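 S3 HeLa stable clones carrying a lamin A-EGFP splicing minigene plus DsRed2 were seeded at 600 cells/well in Opti-MEM with 2% FBS, pin-dosed and incubated 48 h at 37°C. Acumen cytometry (488 nm) gave the GFP/RFP total-intensity ratio.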
# [1] = measured here: RFP viability control channel
# [2] = measured here: GFP splicing reporter channel
Structure (SMILES),AC50 [1],AC50 [2]
Cc1ccc(S(=O)(=O)N2CCCC2C(=O)NCCc2nc3ccccc3[nH]2)cc1 (stereo unspecified),"15.8 µM [rising, single point]",–
COc1ccccc1N1CCN(CCCNc2cc(=O)n(C)c(=O)n2C)CC1,"0.501 µM [falling, partial curve, poor fit]","0.891 µM [falling, single point]"
CCN1CCc2c(sc(NC(=O)Nc3ccc(Cl)c(Cl)c3)c2C(N)=O)C1,"15.8 µM [falling, single point]","17.8 µM [falling, single point]"
C=C(C)C1CCC(C)=C1CC(C)(C)/C=N\n1cnnc1 (stereo unspecified),"3.98 µM [rising, partial curve, poor fit]",–
O=C(c1ccccc1)C1CCN(CC(=O)N2CCN(c3ccccc3)CC2)CC1,"0.01 µM [falling, full curve, poor fit]",–
CC(=O)N1CCN(c2ccc(NC(=O)c3cccc(OCc4ccccc4)c3)cc2)CC1,"11.2 µM [rising, partial curve]",–
Cc1cc(C)c2c(n1)nn1c(-n3ccnc3)cc(C)nc21,"12.6 µM [rising, partial curve]",–
O=C(NNC(=O)C1CCN(S(=O)(=O)c2cccc(C(F)(F)F)c2)CC1)C1CC1,–,"20 µM [falling, single point]"
COc1ccc(CNc2cc(-c3ccccc3OC)ncn2)c(OC)c1,–,"7.94 µM [falling, partial curve, poor fit]"
CCC(C(=O)NC1CCCC1)n1c(SCc2cccc(C)c2)nc2ccncc21 (stereo unspecified),"2.51 µM [rising, partial curve, poor fit]",–
CCOc1cccc(C(=O)Nc2ccc(N(CC)CC)cc2)c1,"22.4 µM [rising, single point]",–
CCCCNC(=O)c1ccccc1NC(=O)c1ccc2c(c1)OCO2,"0.1 µM [falling, full curve]","0.0224 µM [falling, full curve]"
O=[N+]([O-])c1cccc(/C([O-])=C(/C(=S)Nc2ccccc2)[n+]2ccccc2)c1,"6.31 µM [rising, single point]",–
Cc1ccc(C(=O)NCC(=O)OCc2cc(=O)n3nc(C4CC4)sc3n2)cc1,–,"10 µM [rising, partial curve, poor fit]"
O=c1c2ccccc2c(C=NCc2ccccn2)c(O)n1-c1ccccc1Cl,–,"0.0562 µM [rising, full curve, poor fit]"
CCOP(=O)(OCC)C(Nc1cccc(C(F)(F)F)c1)c1ccc(C)cc1 (stereo unspecified),–,"5.62 µM [falling, single point]"
COc1ccc(N/C=C\C(=O)c2ccc(C)cc2)cc1OC,–,"0.126 µM [rising, full curve, poor fit]"
Cc1ccc(C)c(CSc2nnc(-c3cccs3)n2Cc2ccco2)c1,"15.8 µM [falling, partial curve, poor fit]","15.8 µM [falling, single point]"
COc1cc2nc(N(C)C)nc(N)c2cc1OC,"15.8 µM [rising, partial curve]","12.6 µM [rising, partial curve, poor fit]"

# Part of the list above, tab-delimited.
Structure (SMILES)	AC50 [1]	AC50 [2]
CCOc1cccc(C(=O)Nc2ccc(N(CC)CC)cc2)c1	22.4 µM [rising, single point]	–
CCCCNC(=O)c1ccccc1NC(=O)c1ccc2c(c1)OCO2	0.1 µM [falling, full curve]	0.0224 µM [falling, full curve]

# (next part)

Structure (SMILES),AC50 [1],AC50 [2]
COc1ccc(-c2nc3c(c4c2C[C@H](c2ccccc2)OC4)CN(S(=O)(=O)c2ccc(C#N)cc2)CC3)c(C)c1,–,"1.78 µM [rising, partial curve, poor fit]"
Nc1nnc(SCC(=O)c2ccc([N+](=O)[O-])cc2)s1,–,"0.891 µM [falling, full curve, poor fit]"
CC1(C)Cc2ccccc2C(N/N=C/c2ccc([N+](=O)[O-])cc2)=N1,"35.5 µM [falling, single point]",–
CC1(c2ccc3noc(-c4ccc(F)cc4)c3c2)OCCO1,"20 µM [rising, single point]",–
CCOn1c(=O)c(=O)n(O)c2ccccc21,"4.47 µM [falling, full curve, poor fit]",–
O=C(NCCOC(=O)c1cccs1)c1cccnc1,"0.0562 µM [rising, partial curve]",–
NNC(=O)C1CCCN1S(=O)(=O)c1ccc(Cl)cc1 (stereo unspecified),–,"0.00794 µM [rising, full curve, poor fit]"
O=C(c1ccc(Cl)c(S(=O)(=O)N2CCCC2)c1)N1CCN(c2ccccn2)CC1,"14.1 µM [rising, single point]",–
O=c1sc2ccccc2c(N2CCCCC2)c1[N+](=O)[O-],"0.0224 µM [falling, full curve, poor fit]",–
COc1ccc(S(=O)(=O)Nc2ccc(F)cc2)cc1N(C)S(=O)(=O)c1ccc(Cl)cc1,"11.2 µM [falling, single point]","17.8 µM [falling, partial curve, poor fit]"
CN(C(=S)Nc1ccc(Oc2ccccc2)cc1)C1CCCCC1,"31.6 µM [rising, single point]","17.8 µM [rising, single point]"
N#CCC(=O)NCCCOC(=O)Nc1ccc(Cl)c(Cl)c1,"15.8 µM [rising, partial curve]",–
C=C(C)CSc1nnc([C@@H](NC(=O)OC(C)(C)C)C(C)CC)o1 (stereo partly specified),"11.2 µM [rising, partial curve, poor fit]",–
COc1ccc(-c2ccc(S(=O)(=O)NCC3CCCO3)cc2)cc1 (stereo unspecified),"5.01 µM [rising, full curve]","2.24 µM [rising, full curve, poor fit]"
Cc1ccccc1OCC(=O)NNC(=S)NC(=O)c1ccccc1[N+](=O)[O-],"35.5 µM [rising, single point]",–
O=C(C[n+]1cc(-c2ccc(Cl)c(Cl)c2)n2c1CCC2)N1c2ccccc2Sc2ccccc21,"31.6 µM [rising, single point]",–
O=C(NCc1ccccc1Cl)c1ccc(NC(=O)c2nsc3ccccc23)cc1,–,"0.282 µM [rising, full curve, poor fit]"
Cc1cc(C(=O)COC(=O)CNS(=O)(=O)c2ccc3ccccc3c2)c(C)n1-c1ccccc1,"17.8 µM [rising, single point]",–
COc1ccccc1CNC(=O)C1CCN(Cc2cc3ccccc3n2Cc2cccc(C)c2)CC1,"0.178 µM [rising, full curve]",–

Structure (SMILES),AC50 [1],AC50 [2]
CCC(Oc1cc(Cl)ccc1Cl)C(=O)NN1C(=O)C2C3CCC(C3=C(C)C)C2C1=O (stereo unspecified),"22.4 µM [rising, single point]",–
CNc1sc(C(=O)c2ccc(F)cc2)c(N)c1-c1nc2ccccc2s1,"17.8 µM [rising, single point]",–
O=C(NNC(=S)NC(=O)c1cccs1)c1ccc(NC(=O)c2ccccc2)cc1,"0.1 µM [rising, full curve, poor fit]",–
O=C1/C(=C\c2ccc(-c3ccccc3[N+](=O)[O-])o2)C(c2ccccc2)=NN1c1ccccc1,"35.5 µM [rising, single point]",–
COc1cccc(/C=N/NC(=O)CSc2nnc(C)n2-c2ccccc2)c1O,–,"28.2 µM [falling, single point]"
CCOC(=O)C1CCN(C(=O)NS(=O)(=O)c2ccc(C)cc2)CC1,"0.0447 µM [rising, full curve, poor fit]","0.00355 µM [rising, full curve, poor fit]"
Cc1cccc(/C=N\Nc2cn[nH]c(=O)c2Cl)c1,"7.08 µM [falling, partial curve]","8.91 µM [falling, partial curve]"
CCC1CN(C(=O)N2CCC(C(=O)N3CCN(c4ccc(F)cc4)CC3)CC2)c2ccccc2O1 (stereo unspecified),"35.5 µM [rising, single point]",–
Cc1c(C(=O)Nc2ccccc2Br)oc2ccc(S(=O)(=O)N3CCOCC3)cc12,"0.0631 µM [falling, full curve]",–
NC(=O)C1CCN(C(=O)COc2ccc(S(=O)(=O)NCc3ccccc3)cc2Cl)CC1,–,"12.6 µM [rising, single point]"
COc1ccc(S(=O)(=O)N2CCCC2C(=O)Nc2nc3c(s2)CCCC3)cc1 (stereo unspecified),"12.6 µM [rising, partial curve]",–
Cc1ccc2cc(C(c3nnnn3C(C)(C)C)N3CCCC3)c(=O)[nH]c2c1C (stereo unspecified),"1 µM [falling, partial curve]",–
CN(Cc1ccccc1NS(=O)(=O)c1ccc(Cl)cc1)C1CCCCC1,"5.62 µM [rising, full curve, poor fit]","4.47 µM [rising, full curve, poor fit]"
O=C(NCC(c1ccc2c(c1)OCO2)N1CCN(c2ccccc2)CC1)c1ccccc1 (stereo unspecified),"0.0398 µM [falling, full curve, poor fit]","22.4 µM [falling, partial curve, poor fit]"
CC(C)N(C(=O)CSc1nnnn1-c1ccc2c(c1)OCO2)C(C)C,"35.5 µM [falling, partial curve]",–
O=C(NC(=S)Nn1cnc2c(cnn2-c2ccccc2)c1=O)c1ccc(Oc2ccccc2)cc1,"0.0158 µM [rising, full curve, poor fit]","14.1 µM [rising, partial curve]"
O=C(COc1ccc(S(=O)(=O)N2CCOCC2)cc1)N1CCCCCC1,"0.00447 µM [falling, full curve, poor fit]",–
O=c1c2ccccc2nc2n1CCc1c-2[nH]c2ccccc12,"0.708 µM [falling, full curve, poor fit]",–
O=C(NCCN1CCOCC1)NC1(C(F)(F)F)Oc2ccccc2O1,"15.8 µM [rising, single point]","17.8 µM [rising, single point]"

# In the list so far, two have a tert-butyl group.
Structure (SMILES),AC50 [1],AC50 [2]
C=C(C)CSc1nnc([C@@H](NC(=O)OC(C)(C)C)C(C)CC)o1 (stereo partly specified),"11.2 µM [rising, partial curve, poor fit]",–
Cc1ccc2cc(C(c3nnnn3C(C)(C)C)N3CCCC3)c(=O)[nH]c2c1C (stereo unspecified),"1 µM [falling, partial curve]",–
